Some results were stated once for a whole list of compounds, not compound by compound.
Tested on: subcutaneous 4T1 tumors
Assay: Study 2 (09-3494): primary tumor growth in the SQ 4T1 model
Assay type: in vivo, Balb/c mice
Details: Day 23, average of cohort (vehicle, 13C4 or 1D11 plus the chemotherapeutic)
Excerpt: Treatment groups, time points, and tissues were similar to the study described above.
For proper analysis of metastasis, all mice were sacrificed on study Day 23. […] The primary tumor was bisected, with one half frozen in OCT and the other half stored in RNALATER™ for qPCR analysis. The lungs were fixed in zinc-buffered formalin for enumeration of pulmonary mets and subsequent IHC analysis.

With `C/C(=C\c1csc(C)n1)[C@@H]1C[C@@H]2O[C@]2(C)CCC[C@H](C)[C@H](O)[C@@H](C)C(=O)C(C)(C)[C@@H](O)CC(=O)N1` [ixabepilone] the “average size of the tumors at the time of study take down” value was no more than 500 mm^3.

From patent US10507242B2, “Combination therapy for treating breast cancer” (Genzyme Corporation, priority 2010, dated 2019)
